Experimental data from patent publication US10525115B2 (Immatics Biotechnologies GmbH, priority 2014, dated 2020).

Columns and labels:
primary AML samples = assay: HLA class I ligandome analysis (W6/32 immunoaffinity purification, LC-MS/MS) of primary AML samples; set-up: species or system human; settings: AML patients (n=15)
[1] = tested on: cancer tissues in comparison to non-cancerous tissues and organs; assay: Presentation profile / over-presentation by label-free LC-MS (XPRESIDENT), tumor versus normal tissues, other proliferative diseases; set-up: species or system human; settings: other proliferative diseases / organs (other than AML) that over- or exclusively present the peptide; Table 5
[2] = HLA class I ligandome, count for the HLA ligand (LiTAP) or, on protein lines, for the source protein (LiTAA)

## 12 (YVLPLVHSL; listed as Homo sapiens) [compound 12]
Primary AML samples; [2]
  Number of positive AMLs: 1
[1]
  Proliferative disease and location thereof: kidney, clear cell renal cell carcinoma, bone, non- ossifying fibroma

## 234 (RPAALFLTL; listed as Homo sapiens) [compound 234]
Primary AML samples; [2]
  Number of positive AMLs: 1
[1]
  Proliferative disease and location thereof: kidney, clear cell renal cell carcinoma, ovary, adenocarcinoma

## 37 (AEIPLRMV; listed as Homo sapiens) [compound 37]
Primary AML samples; [2]
  Number of positive AMLs: 1
[1]
  Proliferative disease and location thereof: stomach, metastatic, adenocarcinoma

## 258 (YLDGVHTVF; listed as Homo sapiens) [compound 258]
Primary AML samples; HLA ligand (LiTAP)
  Number of positive AMLs: 1
[1]
  Proliferative disease and location thereof: colon or rectum, fibromatosis

## 84 (RPEEGKESL; listed as Homo sapiens) [compound 84]
Primary AML samples; [2]
  Number of positive AMLs: 1
[1]
  Proliferative disease and location thereof: lung, non-small cell lung carcinoma, spleen, chronic myeloid leukemia

## 129 (MEKSDKNQ; listed as Homo sapiens) [compound 129]
Primary AML samples; [2]
  Number of positive AMLs: 1
[1]
  Proliferative disease and location thereof: stomach, adenocarcinoma, kidney, Wilm's tumor

## 289 (DIYGGDYERF; listed as Homo sapiens) [compound 289]
Primary AML samples; HLA ligand (LiTAP)
  Number of positive AMLs: 1
[1]
  Proliferative disease and location thereof: colon or rectum, adrenal gland, adrenal cortical carcinoma

## 241 (KTIAFLLPMF; listed as Homo sapiens) [compound 241]
Primary AML samples; HLA ligand (LiTAP)
  Number of positive AMLs: 1
[1]
  Proliferative disease and location thereof: lung, non-small cell lung carcinoma, thymus, thymoma

## 230 (KYLTAEAFGF; listed as Homo sapiens) [compound 230]
Primary AML samples; [2]
  Number of positive AMLs: 2
[1]
  Proliferative disease and location thereof: stomach, metastatic, lung, squamous cell carcinoma

## 164 (RPVPPPPSL; listed as Homo sapiens) [compound 164]
Primary AML samples; [2]
  Number of positive AMLs: 1
[1]
  Proliferative disease and location thereof: colon or rectum, testis, seminoma

## 98 (SFTDVIGHY; listed as Homo sapiens) [compound 98]
Primary AML samples; [2]
  Number of positive AMLs: 1
[1]
  Proliferative disease and location thereof: kidney, angiomyolipoma

## 243 (IHGDTVQNQL; listed as Homo sapiens) [compound 243]
Primary AML samples; HLA ligand (LiTAP)
  Number of positive AMLs: 2
[1]
  Proliferative disease and location thereof: colon or rectum, adrenal gland, adrenal cortical carcinoma

## 322 (SAADGPRVF; listed as Homo sapiens) [compound 322]
Primary AML samples; HLA ligand (LiTAP)
  Number of positive AMLs: 1
[1]
  Proliferative disease and location thereof: breast, carcinoma

## 131 (DTSPDLSSR; listed as Homo sapiens) [compound 131]
Primary AML samples; [2]
  Number of positive AMLs: 1
[1]
  Proliferative disease and location thereof: lung, non-small cell lung carcinoma, testis, seminoma

## 142 (ESAALIHHY; listed as Homo sapiens) [compound 142]
Primary AML samples; [2]
  Number of positive AMLs: 2
[1]
  Proliferative disease and location thereof: liver, hepatocellular carcinoma, fibromatosis

## 66 (ETAVAILRF; listed as Homo sapiens) [compound 66]
Primary AML samples; [2]
  Number of positive AMLs: 4
[1]
  Proliferative disease and location thereof: metastatic infiltrating lobular carcinoma of breast

## 21 (SIYDDSYLGY; listed as Homo sapiens) [compound 21]
Primary AML samples; [2]
  Number of positive AMLs: 1
[1]
  Proliferative disease and location thereof: malignant fibrous histiocytoma

## 207 (APAGARGGPA; listed as Homo sapiens) [compound 207]
Primary AML samples; [2]
  Number of positive AMLs: 1
[1]
  Proliferative disease and location thereof: colon or rectum, rectum, adenocarcinoma

## 161 (LQQTNSEKI; listed as Homo sapiens) [compound 161]
Primary AML samples; [2]
  Number of positive AMLs: 1
[1]
  Proliferative disease and location thereof: kidney, clear cell renal cell carcinoma, parotid; gland, pleomorphic adenoma

## 248 (GLGPTFKL; listed as Homo sapiens) [compound 248]
Primary AML samples; HLA ligand (LiTAP)
  Number of positive AMLs: 1
[1]
  Proliferative disease and location thereof: lung, non-small cell lung carcinoma, stomach, adenocarcinoma

## 173 (GTNDGPALKK; listed as Homo sapiens) [compound 173]
Primary AML samples; [2]
  Number of positive AMLs: 1
[1]
  Proliferative disease and location thereof: colon or rectum, liver, hepatocellular carcinoma

## 115 (ETEQTIQKL; listed as Homo sapiens) [compound 115]
Primary AML samples; [2]
  Number of positive AMLs: 1
[1]
  Proliferative disease and location thereof: stomach, metastatic, bone, non-ossifying fibroma

## 100 (ALLGVTGAPK; listed as Homo sapiens) [compound 100]
Primary AML samples; [2]
  Number of positive AMLs: 1
[1]
  Proliferative disease and location thereof: colon or rectum, spleen, extramedullary; hematopoiesis

## 5 (RPVMPSRQI; listed as Homo sapiens) [compound 5]
Primary AML samples; [2]
  Number of positive AMLs: 1
[1]
  Proliferative disease and location thereof: colon or rectum, lung, small cell carcinoma

## 109 (ESRGPALTR; listed as Homo sapiens) [compound 109]
Primary AML samples; [2]
  Number of positive AMLs: 1
[1]
  Proliferative disease and location thereof: lung, non-small cell lung carcinoma, spleen, extramedullary hematopoiesis

## 25 (YLDIKGLLDV; listed as Homo sapiens) [compound 25]
Primary AML samples; [2]
  Number of positive AMLs: 2
[1]
  Proliferative disease and location thereof: brain, glioblastoma, thyroid gland, nodular; hyperplasia

## 116 (FLYPFLSHL; listed as Homo sapiens) [compound 116]
Primary AML samples; [2]
  Number of positive AMLs: 1
[1]
  Proliferative disease and location thereof: stomach, metastatic, bone, non-ossifying fibroma

## 199 (LLADITSKY; listed as Homo sapiens) [compound 199]
Primary AML samples; [2]
  Number of positive AMLs: 1
[1]
  Proliferative disease and location thereof: stomach, metastatic, lung, neuroendocrine carcinoma

## 311 (KELSVLSLI; listed as Homo sapiens) [compound 311]
Primary AML samples; HLA ligand (LiTAP)
  Number of positive AMLs: 1
[1]
  Proliferative disease and location thereof: stomach, metastatic, lung, neuroendocrine carcinoma

## 200 (VLVDRTIYI; listed as Homo sapiens) [compound 200]
Primary AML samples; [2]
  Number of positive AMLs: 3
[1]
  Proliferative disease and location thereof: liver, hepatocellular carcinoma, liver, focal; nodular hyperplasia

## 99 (ASAAASGGLLK; listed as Homo sapiens) [compound 99]
Primary AML samples; [2]
  Number of positive AMLs: 3
[1]
  Proliferative disease and location thereof: colon or rectum, spleen, extramedullary; hematopoiesis

## 312 (TQPHPNTVY; listed as Homo sapiens) [compound 312]
Primary AML samples; HLA ligand (LiTAP)
  Number of positive AMLs: 2
[1]
  Proliferative disease and location thereof: stomach, metastatic, lung, neuroendocrine carcinoma

## 277 (VEFPHSPEI; listed as Homo sapiens) [compound 277]
Primary AML samples; HLA ligand (LiTAP)
  Number of positive AMLs: 2
[1]
  Proliferative disease and location thereof: colon or rectum, endometrium, Mullerian mixed; tumor

## 237 (EVSEQILHM; listed as Homo sapiens) [compound 237]
Primary AML samples; [2]
  Number of positive AMLs: 3
[1]
  Proliferative disease and location thereof: stomach, metastatic, lymph node, non-Hodgkin's; lymphoma

## 222 (KEKPAENTL; listed as Homo sapiens) [compound 222]
Primary AML samples; [2]
  Number of positive AMLs: 1
[1]
  Proliferative disease and location thereof: kidney, clear cell renal cell carcinoma, spleen, non-Hodgkin's lymphoma

## 80 (LPVRTLSI; listed as Homo sapiens) [compound 80]
Primary AML samples; [2]
  Number of positive AMLs: 1
[1]
  Proliferative disease and location thereof: colon or rectum, metastatic renal cell carcinoma

## 16 (ALASLIRSV; listed as Homo sapiens) [compound 16]
Primary AML samples; [2]
  Number of positive AMLs: 5
[1]
  Proliferative disease and location thereof: thyroid gland, nodular hyperplasia

## 198 (IEFTYTAKL; listed as Homo sapiens) [compound 198]
Primary AML samples; [2]
  Number of positive AMLs: 1
[1]
  Proliferative disease and location thereof: stomach, metastatic, lung, neuroendocrine carcinoma

## 53 (VLYEGIKVGK; listed as Homo sapiens) [compound 53]
Primary AML samples; [2]
  Number of positive AMLs: 4
[1]
  Proliferative disease and location thereof: parathyroid gland, adenoma

## 39 (FPGLAIKI; listed as Homo sapiens) [compound 39]
Primary AML samples; [2]
  Number of positive AMLs: 2
[1]
  Proliferative disease and location thereof: stomach, metastatic, adenocarcinoma

## 101 (DEIKTLQRY; listed as Homo sapiens) [compound 101]
Primary AML samples; [2]
  Number of positive AMLs: 1
[1]
  Proliferative disease and location thereof: stomach, adenocarcinoma, liver, carcinoid tumor, metastatic

## 11 (SEQEMNAHL; listed as Homo sapiens) [compound 11]
Primary AML samples; [2]
  Number of positive AMLs: 1
[1]
  Proliferative disease and location thereof: kidney, clear cell renal cell carcinoma, bone, non- ossifying fibroma

## 157 (GRVKLSDFGF; listed as Homo sapiens) [compound 157]
Primary AML samples; [2]
  Number of positive AMLs: 1
[1]
  Proliferative disease and location thereof: prostate, adenocarcinoma

## 77 (GEKSESISV; listed as Homo sapiens) [compound 77]
Primary AML samples; [2]
  Number of positive AMLs: 1
[1]
  Proliferative disease and location thereof: stomach, adenocarcinoma, white blood cells, chronic lymphocytic leukemia

## 188 (LLEQKVWEV; listed as Homo sapiens) [compound 188]
Primary AML samples; [2]
  Number of positive AMLs: 1
[1]
  Proliferative disease and location thereof: liver, hepatocellular carcinoma, cancer, liver, hepatocellular carcinoma

## 309 (RLLPPVGTGR; listed as Homo sapiens) [compound 309]
Primary AML samples; HLA ligand (LiTAP)
  Number of positive AMLs: 1
[1]
  Proliferative disease and location thereof: stomach, metastatic, breast, carcinoma

## 242 (EVTTNIPKM; listed as Homo sapiens) [compound 242]
Primary AML samples; HLA ligand (LiTAP)
  Number of positive AMLs: 3
[1]
  Proliferative disease and location thereof: liver, hepatocellular carcinoma, cancer, adenoid; cystic carcinoma

## 209 (RFIPELINF; listed as Homo sapiens) [compound 209]
Primary AML samples; [2]
  Number of positive AMLs: 1
[1]
  Proliferative disease and location thereof: colon or rectum, rectum, adenocarcinoma

## 24 (NYLDIKGLL; listed as Homo sapiens) [compound 24]
Primary AML samples; [2]
  Number of positive AMLs: 1
[1]
  Proliferative disease and location thereof: brain, glioblastoma, thyroid gland, nodular; hyperplasia

## 160 (KDDELSRQ; listed as Homo sapiens) [compound 160]
Primary AML samples; [2]
  Number of positive AMLs: 1
[1]
  Proliferative disease and location thereof: liver, hepatocellular carcinoma, cancer, parotid; gland, pleomorphic adenoma

## 128 (LEKAFSEI; listed as Homo sapiens) [compound 128]
Primary AML samples; [2]
  Number of positive AMLs: 1
[1]
  Proliferative disease and location thereof: stomach, adenocarcinoma, kidney, Wilm's tumor
